Record: PubChem BioAssay AID743121 (NCATS, 2013)
In all, the deposit lists about 26,000 reagents; shown is a random part of them. Over the whole deposit, 167 (0.63%) were called active. 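Calls are per gene from RSA p-values that are not deposited; an individual active-marked siRNA can sensitise only weakly.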 Reagents against one gene are numbered here. Not all columns of the deposit are shown.

- Purpose: 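Partners whose loss is lethal together with topoisomerase I blockade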 (primary screen)
- Cells: MDA-MB-231 cells, a human breast cancer line
- Knock-down reagent: single siRNA against human genes, 20 nM siRNA (0.8 pmol per well)
- Duration: 120 h (drug added 48 h after transfection, read 72 h later)
- Treatment: camptothecin 20 nM (about EC30) for 72 h; vehicle 0.1% DMSO in parallel plates
- Read-out: 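CellTiter-Glo ATP signal, scaled to control siRNA as percent viability; sensitisation given as log2 of untreated divided by camptothecin-treated viability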
- Reading the numbers: log2 vehicle/camptothecin viability: higher = stronger sensitisation to camptothecin; viability with camptothecin: higher = more viable cells
- Hit rule: 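Active genes have an RSA gene-level p-value below 0.001, computed from the ratios of their separate siRNAs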

gene	reagent	log2 vehicle/camptothecin viability	viability with camptothecin (% of control)	activity call
CAMKK2	1	-0.0343	54	inactive
CAMKK2	2	-0.166	111	inactive
CAMKK2	3	-0.42	72.8	inactive
CAMKK2	4	-0.646	61.7	inactive
ULK3	1	-0.135	100	inactive
ULK3	2	-0.374	72.2	inactive
ULK3	3	0.585	17.1	inactive
ULK3	4	-0.252	122	inactive
LTA4H	1	0.13	68.1	inactive
LTA4H	2	-0.645	100	inactive
LTA4H	3	0.0655	94.1	inactive
LTA4H	4	-0.345	94.1	inactive
RAB1B	1	-0.226	95.8	inactive
RFX1	1	1.85	14.8	inactive
RFX1	2	-0.573	80	inactive
RFX1	3	-0.315	41.7	inactive
RFX1	4	0.021	101	inactive
RNF123	1	-0.306	85.7	inactive
RNF123	2	0.0448	98.3	inactive
RNF123	3	0.206	53.9	inactive
RNF123	4	-0.213	55.1	inactive
GPRC5A	1	-0.0688	91.3	inactive
GPRC5A	2	-0.52	109	inactive
GPRC5A	3	-0.225	81.8	inactive
GPRC5A	4	-0.307	85.4	inactive
CD22	1	-0.124	105	inactive
CD22	2	0.259	56.3	inactive
CD22	3	-0.055	70	inactive
PPP2CB	1	-0.391	80.6	inactive
PPP2CB	2	-0.59	35.6	inactive
PPP2CB	3	-0.406	47.9	inactive
PPP2CB	4	-0.343	118	inactive
FLT3LG	1	-0.167	60.2	inactive
FLT3LG	2	0.523	28.9	inactive
FLT3LG	3	0.262	33.7	inactive
FLT3LG	4	-0.542	68.3	inactive
PPP3CB	1	-0.203	103	inactive
PPP3CB	2	0.219	61.6	inactive
PPP3CB	3	0.0501	92.6	inactive
PPP3CB	4	-0.443	117	inactive
BDH2	1	-0.272	91.2	inactive
BDH2	2	0.0675	78.9	inactive
BDH2	3	-0.125	77.1	inactive
BDH2	4	-0.139	116	inactive
EBP	1	-0.396	75.7	inactive
EBP	2	-0.478	62.9	inactive
EBP	3	-0.454	51.6	inactive
EBP	4	-0.511	91.3	inactive
NCK2	1	-0.023	93	inactive
NCK2	2	0.111	53.5	inactive
NCK2	3	-0.181	59.4	inactive
NCK2	4	-0.323	65.2	inactive
METTL21C	1	0.294	73.7	inactive
METTL21C	2	0.002	84.9	inactive
METTL21C	3	0.218	44.1	inactive
METTL21C	4	0.109	105	inactive
VTN	1	-0.628	83.3	inactive
VTN	2	0.252	77.5	inactive
VTN	3	-0.457	54.1	inactive
VTN	4	-0.0395	99.9	inactive
BIRC3	1	0.313	85.7	inactive
BIRC3	2	0.402	70.6	inactive
BIRC3	3	-0.0374	95.1	inactive
MINDY3	1	-0.376	71.7	inactive
MINDY3	2	-0.332	56.6	inactive
MINDY3	3	-0.282	82.9	inactive
MINDY3	4	-0.0787	99.1	inactive
DUOX1	1	0.278	42.6	inactive
DUOX1	2	-0.202	111	inactive
DUOX1	3	-0.133	106	inactive
DUOX1	4	-0.228	43.3	inactive

12 entries from above, ordered by “viability with camptothecin (% of control)”, descending:
gene	reagent	log2 vehicle/camptothecin viability	viability with camptothecin (% of control)	activity call
ULK3	4	-0.252	122	inactive
ULK3	1	-0.135	100	inactive
LTA4H	2	-0.645	100	inactive
RAB1B	1	-0.226	95.8	inactive
LTA4H	3	0.0655	94.1	inactive
LTA4H	4	-0.345	94.1	inactive
RFX1	2	-0.573	80	inactive
ULK3	2	-0.374	72.2	inactive
LTA4H	1	0.13	68.1	inactive
CAMKK2	4	-0.646	61.7	inactive
ULK3	3	0.585	17.1	inactive
RFX1	1	1.85	14.8	inactive
